Legend:
Test in all cases: PAMCHIP96 (140-peptide array) profiling of xenograft tumor lysates in absence or presence of MTKI
Type in all cases: biochemical
[1] = test system: tyrosine kinase activity in xenograft tumor lysates; set-up: key: R = Responder to MTKI; NR = Non-Responder to MTKI; settings: 21 signature peptides
Procedure: (§1) 100 mg of frozen tumor or tissue blocks, or sections, are lysed in 1 ml of M-PER buffer (PIERCE) containing phosphatase and protease inhibitors (HALT, PIERCE). The suspension is mixed using a ULTRA-TURRAX blender (IKA werke), and centrifuged twice for 10 minutes at 12 000×g. Supernatant lysates are filtered through a 0.2 micrometer filter (Anotop 0.2 μm anopore filter; Whatmann). Lysates are flash frozen in liquid nitrogen and stored at −80C.
(§2) Just prior to the PAMCHIP experiment, total protein content is quantitated in the lysates and lysates are diluted to 1 mg/ml in a total volume of 200 μl, with M-PER phosphatase and protease inhibitors (HALT, PIERCE). 10 μg of total lysate (corresponding to 10 μl) will be used per well on the PAMCHIP96.
(§3) To all 200 μl lysates 10 units of benzonase (Novagen) is added and lysates are further incubated for 30 min on ice and next centrifuged for 10 minutes at 12 000×g. The supernatant is then 1:1 diluted with compound or DMSO diluted to the appropriate concentration in water, and lysates are further incubated exactly 60 min on ice. Meanwhile, a PAMCHIP96 tyrosine peptide chip (PAMGENE) is blocked with 2% BSA (filtered through a 0.2 μm anopore filter; Whatmann) using the standard setting of a PAMSTATION96 (PAMGENE).
(§4) The composition of the kinase buffer is as follows: 1×ABL buffer (NEB), 0.5 mg/ml BSA (from 10 mg/ml NEB stock), 100 μM ATP (dissolved and diluted in 1×ABL buffer), 5 μg/ml PY20-FITC (ExAlpha Biologicals, azide-free preparation). A twofold concentrated kinase buffer is prepared chilled on ice, DMSO or compound is added as appropriate, and the solution is added 1:1 to the (compound treated) ice cold lysates, and immediately applied to a tyrosine peptide PAMCHIP96. The assay is run on a PAMSTATION96 according to standard procedures: after loading of the plate, solution is pumped once onto the wells, a first exposure is read (150 mSec) and then a kinetic reading program (reading every 5 min for 150 mSec) is run for 60 min. Lysates are run in 6 technical replicates for each condition; replicates are always applied horizontally next to each other to avoid vertical strip effects of the chip.
The data (spot images) are further quantified and linked to the peptide identities using EVOLVE PAMGRID software (PAMGENE). The quantified data are then fit to a curve using CurveFitHT software (PAMGENE) using the Vinip2 curve fitting algorithm, applied on the first 30 min of the assay; the initial velocity is derived at the first kinetic time point read. All subsequent data analyses were done on initial velocities (Vini) using the software packages Omniviz and R (Ihaka, R. and Gentlemen, R. (1996) R: a language for data analysis and graphics. J. Comput. Graph. Stat., 5, 299-314). […]

[2] = test system: tyrosine kinase activity in xenograft tumor lysates; set-up: key: A Responder is predicted when minimally 7 peptides have a ratio <0.8; NR = Non-Responder to MTKI; settings: PC3 xenograft tumor lysate; 21 peptides of 140-peptide array
Procedure: as §1
as §2, with “PAMCHIP96. […]” for “PAMCHIP96.”
The composition of the kinase buffer is as follows: 1×ABL buffer (NEB), 0.5 mg/ml BSA (from 10 mg/ml NEB stock), 100 μM ATP (dissolved and diluted in 1×ABL buffer), 5 μg/ml PY20-FITC (ExAlpha Biologicals, azide-free preparation). […] The assay is run on a PAMSTATION96 according to standard procedures: after loading of the plate, solution is pumped once onto the wells, a first exposure is read (150 mSec) and then a kinetic reading program (reading every 5 min for 150 mSec) is run for 60 min. […]
The data (spot images) are further quantified and linked to the peptide identities using EVOLVE PAMGRID software (PAMGENE). […]

[3] = test system: tyrosine kinase activity in xenograft tumor lysates; set-up: key: R: A responder is predicted when minimally 4 peptides have a ratio <0.8; NR = Non-Responder to MTKI
Procedure: as §1, §2, §3, §4
The data (spot images) are further quantified and linked to the peptide identities using EVOLVE PAMGRID software (PAMGENE). The quantified data are then fit to a curve using CurveFitHT software (PAMGENE) using the Vinip2 curve fitting algorithm, applied on the first 30 min of the assay; the initial velocity is derived at the first kinetic time point read. All subsequent data analyses were done on initial velocities (Vini) using the software packages Omniviz and R (Ihaka, R. and Gentlemen, R. (1996) R: a language for data analysis and graphics. J. Comput. Graph. Stat., 5, 299-314).
After replacing the Vini's lower than 0.1 by 0.1, all Vini's were log 2-transformed to approach normality. […] This test was done for each peptide separately using a mixed model (Littell, R. C., Milliken, G. A., Stroup, W. W., Wolfinger, R. D. 1996. SAS system for mixed models. Cary, N. C.: SAS Institute Inc.) allowing the incorporation of both technical variation (i.e., the variation across replicates) and biological variation (i.e., the variation among the various responding and non-responding cell lines or tumors). Variation between cell lines or tumors in Vini and in treatment effect on Vini was modeled respectively by random intercepts and random compound effects per cell line or tumor, nested in response status. The difference in compound-induced reduction in Vini between responding and non-responding cell lines or tumors was tested through the interaction between compound treatment and response status, both modeled as fixed effects.

Measured: response prediction

COc1cc2ncnc3c2cc1OCCCCCN(C)Cc1ccc(Br)cc1N3 [MTKI, 4,6-ethanediylidenepyrimido[4,5-b][6,1,12]benzoxadiazacyclopentadecine, 17-bromo-8,9,10,11,12,13,14,19-octahydro-20-methoxy-13-methyl-]
NR: [3]; BT474 xenograft tumor lysate, 21 signature peptides | [3]; H441 xenograft tumor lysate, 21 peptides of 140-peptide array | [3]; H460 xenograft tumor lysate, 21 peptides of 140-peptide array | [3]; H1703 xenograft tumor lysate, 21 peptides of 140-peptide array | [3]; HT29 xenograft tumor lysate, 21 peptides of 140-peptide array | [3]; SKOV3 xenograft tumor lysate, 21 peptides of 140-peptide array | [3]; SUM149 xenograft tumor lysate, 21 signature peptides
R: [1]; A431 xenograft tumor lysate | [1]; DU145 xenograft tumor lysate | [1]; H322 xenograft tumor lysate | [1]; H3255 xenograft tumor lysate | [2]
